Measured values: patent US20090170899A1, “Stimulators of 5-HT4 receptors and uses thereof” (priority 2004, published 2009)
For at least one compound, name, drawing or mass did not settle the structure.

How the values were obtained:
[1] = Forced swimming test (FST); format: in vivo, rat; conditions: Example 4; citalopram 10 mg/kg i.p.
Text: The “forced swimming test” (FST) is a behavioural test for rodents, which predicts the efficacy of antidepressant drugs (Porsolt et al., 1977; Lucki, 1997). […] The widespread use of this model is largely a result of its ease of use, reliability across laboratories and ability to detect a broad spectrum of antidepressant agents. The test is based on the observation that rats, following initial escape-oriented movements (climbing and swimming), develop an immobile posture when placed in an inescapable cylinder of water. If they are replaced in the same testing apparatus 24 h later, they resume this immobile posture quickly. […] The combination effect of a particular 5-HT4 agonist and a SSRI may be evaluated using the FST model.
Experiments were carried out in male Sprague-Dawley rats (Charles River, St Constant, Québec). […] In all experiments, the pretest was carried out for 15 min and the test for 5 min in the same tank but only the last 4 min were analyzed. […] A digital camera recorded on line animal's behavior during the FST, and both time of immobility and climbing attempts were counted. […]
Behavioral experiments. […] In all experiments, the pre-test was carried out for 15 min and the test for 5 min in the same tank but the last 4 min only were analyzed. […]

[2] = administered only once before testing; Sanchez et al., 2003; cited from earlier work

CN(C)CCCC1(c2ccc(F)cc2)OCc2cc(C#N)ccc21 (centres unmarked) [citalopram]
effect on immobility in FST [1]: slight, but significant, reduction
reduction of immobility time in FST [2]: about −30%
